Test results taken from the supplement of paper PMC4604168 (melanoma cell lines).
The other results are listed elsewhere or left out. Repeats are few or missing, and single values can be far off.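 Cells were imaged in 1,536-well plates, and nuclei stained with an antibody against cleaved PARP were counted against all DNA-stained nuclei to give the apoptosis fraction. Screening doses were chosen to leave most cells alive, and resting and induced cleaved-PARP levels differ strongly between cell lines.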

Legend:
Experiment in all cases: cleaved PARP positive nuclei fraction relative to DMSO control; melanoma cells; higher = more apoptosis
Settings in all cases: library dose: low library concentration; 72 h
MZ2-MEL = test system: MZ2-MEL
MeWo = test system: MeWo
RPMI7951 = test system: RPMI7951
RVH-421 = test system: RVH-421
SkMel28 = test system: SkMel28
SkMel2 = test system: SkMel2
SkMel30 = test system: SkMel30
SkMel5 = test system: SkMel5
UACC257 = test system: UACC257
UACC62 = test system: UACC62
WM115 = test system: WM115
WM1716 = test system: WM1716
WM1745 = test system: WM1745
WM3526 = test system: WM3526
WM3619 = test system: WM3619
WM451Lu = test system: WM451Lu

SMILES | cleaved PARP positive nuclei fraction (MZ2-MEL) [%] | cleaved PARP positive nuclei fraction (MeWo) [%] | cleaved PARP positive nuclei fraction (RPMI7951) [%] | cleaved PARP positive nuclei fraction (RVH-421) [%] | cleaved PARP positive nuclei fraction (SkMel28) [%] | cleaved PARP positive nuclei fraction (SkMel2) [%] | cleaved PARP positive nuclei fraction (SkMel30) [%] | cleaved PARP positive nuclei fraction (SkMel5) [%] | cleaved PARP positive nuclei fraction (UACC257) [%] | cleaved PARP positive nuclei fraction (UACC62) [%] | cleaved PARP positive nuclei fraction (WM115) [%] | cleaved PARP positive nuclei fraction (WM1716) [%] | cleaved PARP positive nuclei fraction (WM1745) [%] | cleaved PARP positive nuclei fraction (WM3526) [%] | cleaved PARP positive nuclei fraction (WM3619) [%] | cleaved PARP positive nuclei fraction (WM451Lu) [%]
CC1(C)CCC(c2ccc(Cl)cc2)=C(CN2CCN(c3ccc(C(=O)NS(=O)(=O)c4ccc(N[C@H](CCN5CCOCC5)CSc5ccccc5)c(S(=O)(=O)C(F)(F)F)c4)cc3)CC2)C1 + CCCCCCCCCCCC1=C(O)C(=O)C=C(O)C1=O [Embelin] (first compound 0.4 µM, partner dose 1.2 µM) | 248 | 322 | 61.2 | 74 | 80.4 | 182 | 47.7 | 329 | 79.1 | 149 | 312 | 809 | 587 | 99.3 | 105 | 70.3
NC1(c2ccc(-c3nc4ccn5c(=O)[nH]nc5c4cc3-c3ccccc3)cc2)CCC1 + CCN(CC)CCCCNc1ncc2cc(-c3cc(OC)cc(OC)c3)c(NC(=O)NC(C)(C)C)nc2n1 [PD173074] (first compound 0.4 µM, partner dose 0.1 µM) | 131 | 180 | 136 | 84.9 | 297 | 53.4 | 97.5 | 82.8 | 411 | 197 | 132 | 119 | 109 | 545 | 104 | 100
COc1ccc(C2=N[C@@H](c3ccc(Cl)cc3)[C@@H](c3ccc(Cl)cc3)N2C(=O)N2CCNC(=O)C2)c(OC(C)C)c1 [Nutlin-3] + O=C(O)C(=O)Nc1sc2c(c1C(=O)O)CCNC2 [TCS401] (first compound 0.1 µM, partner dose 1.66667 µM) | 97.5 | 91.7 | 129 | 170 | 125 | 111 | 146 | 185 | 22.1 | 269 | 91 | 53.1 | 98 | 80.4 | 109 | 358
C[C@@H](N)c1ccc(C(=O)Nc2ccnc3[nH]ccc23)cc1 + C=CCn1c(=O)c2cnc(Nc3ccc(N4CCN(C)CC4)cc3)nc2n1-c1cccc(C(C)(C)O)n1 [MK1775] (first compound 0.4 µM, partner dose 0.02 µM) | 376 | 376 | 316 | 65.8 | 86.5 | 126 | 109 | 68.7 | 92.4 | 303 | 47.5 | 251 | 142 | 49.9 | 114 | 24.2
CS(=O)(=O)c1ccc(C(=O)Nc2ccc(Cl)c(-c3ccccn3)c2)c(Cl)c1 [vismodegib] + OCCn1cc(-c2cnc3nnn(Cc4ccc5ncccc5c4)c3n2)cn1 [PF04217903] (first compound 1 µM, partner dose 1 µM) | 175 | 78 | 111 | 121 | 64.6 | 118 | 66.6 | 65.6 | 185 | 31 | 44.2 | 82.1 | 97.7 | 56.7 | 116 | 112
NC1(c2ccc(-c3nc4ccn5c(=O)[nH]nc5c4cc3-c3ccccc3)cc2)CCC1 + Cn1cc(/C=C2\C(=O)Nc3cccnc32)c2ccccc21 [GW441756] (first compound 0.4 µM, partner dose 0.4 µM) | 68 | 139 | 70.7 | 101 | 204 | 20.4 | 29.3 | 93.5 | 594 | 169 | 364 | 110 | 97.1 | 219 | 108 | 40.1
NC1(c2ccc(-c3nc4ccn5c(=O)[nH]nc5c4cc3-c3ccccc3)cc2)CCC1 + CC(C)(C)c1cnc(CSc2cnc(NC(=O)C3CCNCC3)s2)o1 [SNS-032] (first compound 0.4 µM, partner dose 0.01 µM) | 94.5 | 75.9 | 118 | 130 | 43.8 | 106 | 70.9 | 59.4 | 68.1 | 370 | 342 | 98.1 | 102 | 75.3 | 99.4 | 71.3
C[C@@H](N)c1ccc(C(=O)Nc2ccnc3[nH]ccc23)cc1 + CCN(CC)CCCCNc1ncc2cc(-c3cc(OC)cc(OC)c3)c(NC(=O)NC(C)(C)C)nc2n1 [PD173074] (first compound 0.4 µM, partner dose 0.1 µM) | 287 | 197 | 70.1 | 63.6 | 140 | 95.2 | 127 | 180 | 198 | 66.2 | 32.1 | 200 | 100 | 61.8 | 89.8 | 159
C[C@]1(O)C[C@@H](c2nc(-c3ccc4ccc(-c5ccccc5)nc4c3)c3c(N)nccn32)C1 + N#Cc1c(O)c2c(-c3ccc(-c4ccccc4O)cc3)csc2[nH]c1=O [A769662] (first compound 0.4 µM, partner dose 2 µM) | 197 | 39.1 | 28.4 | 77 | 138 | 138 | 129 | 75.3 | 89.3 | 169 | 125 | 91.2 | 102 | 83.7 | 106 | 150
C[C@]1(O)C[C@@H](c2nc(-c3ccc4ccc(-c5ccccc5)nc4c3)c3c(N)nccn32)C1 + Cc1cc(N2CCOCC2)cc2[nH]c(-c3c(NC[C@@H](O)c4cccc(Cl)c4)cc[nH]c3=O)nc12 [BMS536924] (first compound 0.4 µM, partner dose 0.2 µM) | 117 | 23.5 | 129 | 84.1 | 285 | 146 | 64.7 | 67.1 | 109 | 112 | 47.9 | 85.8 | 118 | 27.6 | 118 | 48.4
C[C@@H](N)c1ccc(C(=O)Nc2ccnc3[nH]ccc23)cc1 + Cc1ccc(NC(=O)c2cccc(N(C)C)c2)cc1NC(=O)c1ccc(O)cc1 [ZM336372] (first compound 0.4 µM, partner dose 2 µM) | 179 | 107 | 107 | 77.5 | 167 | 118 | 67.5 | 109 | 123 | 105 | 48.5 | 165 | 103 | 56.8 | 92.3 | 38.3
CCN(CC)CCNC(=O)c1c(C)[nH]c(/C=C2\C(=O)Nc3ccc(F)cc32)c1C [sunitinib] + COc1ccc2c(c1)CCC1C2CCC2(C)C(NCCCCCCN3C(=O)C=CC3=O)CCC12 [U73122] (first compound 0.4 µM, partner dose 0.4 µM) | 87 | 93.6 | 99.3 | 48.2 | 104 | 51.3 | 44 | 67.1 | 91.7 | 143 | 34 | 81.2 | 123 | 173 | 70.3 | 40.3
COc1ccc(C2=N[C@@H](c3ccc(Cl)cc3)[C@@H](c3ccc(Cl)cc3)N2C(=O)N2CCNC(=O)C2)c(OC(C)C)c1 [Nutlin-3] + Oc1nc(-c2ccc(C(F)(F)F)cc2)nc2c1CSCC2 [XAV939] (first compound 0.1 µM, partner dose 2 µM) | 174 | 47.3 | 146 | 90 | 186 | 68 | 108 | 73.4 | 234 | 218 | 247 | 466 | 99.6 | 94.5 | 144 | 131
Cn1sc(=O)n(Cc2ccccc2)c1=O + O=C(CCCCCCC(=O)Nc1ccccc1)NO [vorinostat] (first compound 0.4 µM, partner dose 0.08 µM) | 161 | 143 | 165 | 55.5 | 138 | 122 | 62.5 | 74.5 | 189 | 118 | 60.3 | 73.3 | 98.1 | 68.4 | 114 | 422
COc1ccc(C2=N[C@@H](c3ccc(Cl)cc3)[C@@H](c3ccc(Cl)cc3)N2C(=O)N2CCNC(=O)C2)c(OC(C)C)c1 [Nutlin-3] + O=C(CCCCCCC(=O)Nc1ccccc1)NO [vorinostat] (first compound 0.1 µM, partner dose 0.08 µM) | 161 | 218 | 47.4 | 97.6 | 120 | 85.4 | 61.2 | 33.6 | 44.6 | 76.9 | 44.1 | 100 | 81.4 | 56.2 | 95.6 | 133
CCN(CC)CCNC(=O)c1c(C)[nH]c(/C=C2\C(=O)Nc3ccc(F)cc32)c1C [sunitinib] + COC(=O)c1sccc1S(=O)(=O)Nc1ccc(Nc2ccccc2)cc1OC [GSK0660] (first compound 0.4 µM, partner dose 1 µM) | 73.7 | 136 | 193 | 118 | 136 | 27.5 | 75.4 | 286 | 89.4 | 178 | 68.7 | 39 | 106 | 79.2 | 65 | 36
Cn1cnc2c(F)c(Nc3ccc(Br)cc3Cl)c(C(=O)NOCCO)cc21 [selumetinib] + COc1ccc(-c2ccc3c(N4CCOCC4)nc(N4C[C@@H](C)O[C@@H](C)C4)nc3n2)cc1CO [KU0063794] (first compound 0.015 µM, partner dose 0.02 µM) | 121 | 96.2 | 36.5 | 91.8 | 152 | 98.3 | 202 | 32.8 | 140 | 341 | 84.3 | 20.2 | 75.8 | 132 | 99.3 | 27
C[C@@H](N)c1ccc(C(=O)Nc2ccnc3[nH]ccc23)cc1 + COc1cc(Nc2ncc(F)c(Nc3ccc4c(n3)NC(=O)C(C)(C)O4)n2)cc(OC)c1OC [Tamatinib] (first compound 0.4 µM, partner dose 0.4 µM) | 219 | 206 | 104 | 38 | 215 | 135 | 54.6 | 419 | 80.2 | 175 | 136 | 255 | 252 | 70.5 | 54.4 | 80.6

As a short view, part of the list above:
SMILES | cleaved PARP positive nuclei fraction (MZ2-MEL) [%] | cleaved PARP positive nuclei fraction (MeWo) [%] | cleaved PARP positive nuclei fraction (RPMI7951) [%] | cleaved PARP positive nuclei fraction (RVH-421) [%] | cleaved PARP positive nuclei fraction (SkMel28) [%] | cleaved PARP positive nuclei fraction (SkMel2) [%] | cleaved PARP positive nuclei fraction (SkMel30) [%] | cleaved PARP positive nuclei fraction (SkMel5) [%] | cleaved PARP positive nuclei fraction (UACC257) [%] | cleaved PARP positive nuclei fraction (UACC62) [%] | cleaved PARP positive nuclei fraction (WM115) [%] | cleaved PARP positive nuclei fraction (WM1716) [%] | cleaved PARP positive nuclei fraction (WM1745) [%] | cleaved PARP positive nuclei fraction (WM3526) [%] | cleaved PARP positive nuclei fraction (WM3619) [%] | cleaved PARP positive nuclei fraction (WM451Lu) [%]
COc1ccc(C2=N[C@@H](c3ccc(Cl)cc3)[C@@H](c3ccc(Cl)cc3)N2C(=O)N2CCNC(=O)C2)c(OC(C)C)c1 [Nutlin-3] + O=C(CCCCCCC(=O)Nc1ccccc1)NO [vorinostat] (first compound 0.1 µM, partner dose 0.08 µM) | 161 | 218 | 47.4 | 97.6 | 120 | 85.4 | 61.2 | 33.6 | 44.6 | 76.9 | 44.1 | 100 | 81.4 | 56.2 | 95.6 | 133
CCN(CC)CCNC(=O)c1c(C)[nH]c(/C=C2\C(=O)Nc3ccc(F)cc32)c1C [sunitinib] + COC(=O)c1sccc1S(=O)(=O)Nc1ccc(Nc2ccccc2)cc1OC [GSK0660] (first compound 0.4 µM, partner dose 1 µM) | 73.7 | 136 | 193 | 118 | 136 | 27.5 | 75.4 | 286 | 89.4 | 178 | 68.7 | 39 | 106 | 79.2 | 65 | 36
